Reference: patent US9173843B2, “Crystalline active ingredient microparticles, method for producing the same and use thereof in drugs” (Jesalis Pharma GMBH, priority 2008, dated 2015)
For at least one compound, name, drawing or mass did not settle the structure.

How the values were obtained:
[1] = grain size distribution by laser diffraction (Sympatec Helos, RODOS dry disperser); type: physicochemical
Method: The particle size distribution (grain size distribution) is measured by means of a laser diffraction, which provides a distribution curve of the particle sizes (System Sympatec Helos, RODOS dry disperser). dx means that x volume percent (vol. %) of the particles have a diameter that is smaller than the stated value. Thus, at a d50 value of 1 μm, 50 vol. % of the particles have a diameter smaller than 1 μm (micrometer). When the d10, d99 or d100 is 2 μm, 10, 99 or 100 vol. % of the particles have a diameter smaller than 2 μm.
A 100-ml stirred vessel with blade stirrer is charged with 160 g of Y-stabilized zirconium oxide spheres with a diameter of 0.5 mm plus 30 ml water. A solution of 1.5 g drospirenone in 6.25 ml ethanol/water 4:1 (v/v) is added, with stirring. After precipitation of a mainly amorphous phase, transformation to the crystalline modification begins after approximately 2 min. This is completed after 10 to 15 min. After completion of the phase transformation, a solution of 4.5 g drospirenone in 18.75 ml ethanol/water 4:1 (v/v) and in the same ratio 90 ml water is added dropwise within 15 min, with stirring at 1500 rpm. Simultaneously, with approximately constant filling level, product suspension is drawn off. Addition and product withdrawal can also take place quasicontinuously in smaller portions without any adverse effect on the result, if the above time frame is maintained. After the end of addition, to make the yield complete, approx. 60 ml water is used for rinsing. Alternatively, the suspension in the crystallizer can also be left as starting suspension for the next batch. Altogether, 200 g of suspension is obtained, with a solids content of 25 mg per ml. Approximately 15 ml of this suspension is filtered on a G4 frit and the solid is air-dried. The grain size distribution of the dried substance is determined by laser diffraction (Sympatec Helos, RODOS dispersing system).
Granulometric analysis is carried out by laser diffraction (Sympatec Helos, RODOS dispersing system):
Granulometric analysis was carried out by laser diffraction (Sympatec Helos, RODOS dispersing system, dispersing pressure 5 bar).

[2] = crystallinity by XRPD compared with conventional jet mill micronizate; type: physicochemical; conditions: relative to reference sample
[3] = vol. % of particles smaller than value

SMILES: C[C@@H]1C[C@H]2[C@@H]3C[C@H](F)C4=CC(=O)C=C[C@]4(C)[C@@]3(F)[C@@H](O)C[C@]2(C)[C@@]1(O)C(=O)SCF [Example 5, fluticasone]
- d10 (grain size distribution) ([1]; dispersing pressure 5 bar): 0.5 μm
- d50 (grain size distribution) [1, 3]: 1.47 μm
- d99 (grain size distribution) [1, 3]: 4.80 μm
- d100 (grain size distribution) [1, 3]: 6.00 μm
- crystallinity ([2]; listed as Fluticasone): 100 wt. %

SMILES: C[C@@H]1C[C@H]2[C@@H]3C[C@H](F)C4=CC(=O)C=C[C@]4(C)[C@@]3(F)[C@@H](O)C[C@]2(C)[C@@]1(O)C(=O)SCF [Jet mill micronizate, fluticasone, reference compound]
- crystallinity [2]: 95 wt. %
